Experimental data from the supplement of paper PMC7125110.
± gives the standard error. The uncertainty is large for many entries.

B1: glmS ribozyme (parent)
chain: AUAAAAGCGCCAGAACUACAGAAAUGUAGUUGACGAGGAGGAGGUUUAUCGAAUUUUCGGCGGAUGCCUCCAAA

Variants of: B1
Assay: KM; higher = weaker cofactor use; RNA array
Details: with glucosamine-6-phosphate
Outline: (§1)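 In situ transcription by E. coli RNA polymerase produced barcoded ribozyme variants on sequenced MiSeq chips, and a hybridised Cy3 probe tracked them at 37 °C. Glucosamine-6-phosphate was flowed in at 40 μM to 10 mM in HEPES/KCl/Mg(OAc)2 buffer. kcat and KM were taken from weighted Michaelis–Menten fits of kobs values from exponential decay fits.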

Row | Variant | KM
1 | AUAAAAGCGCCAGAACUACAGAAAUGUAGUUGACGAGGAGGAGGUUUAUCGAACUUACGGCGGAUGCCUCCAAA | 4630 ± 3800 µM
2 | AUAAAAGCGCCAGAACUACAGAAAUGUAGUUGACGAGGAGGAGGUUUAUCGAAGUUUGGGCGGAUGCCUCCAAA | 4280 ± 1000 µM
3 | AUAAAAGCGCCAGAACUACAGAAAUGUAGUUGACGAGGAGGAGGUUUAUCGAAGUUUCGGCGGAUGCUUACAAA | 1060 ± 560 µM
4 | AUAAAAGCGCCAGAACUACAGAAAUGUAGUUGACGAGGAGGAGGUUUAUCGAAUAUUCUGCGGAUGCCUCCAAA | 1940 ± 1300 µM
5 | AUAAAAGCGCCAGAACUACAGAAAUGUAGUUGACGAGGAGGAGGUUUAUCGAAUAUACGGCGGAUGCCUCCAAA | 452 ± 410 µM
6 | AUAAAAGCGCCAGAACUACAGAAAUGUAGUUGACGAGGAGGAGGUUUAUCGAAUAUUCGGCGGAGGCCUCCAAA | 5810 ± 3200 µM
7 | AUAAAAGCGCCAGAACUACAGAAAUGUAGUUGACGAGGAGGAGGUUUAUCGAAUCUUGGGCGGAUGCCUCCAAA | 11700 ± 1200 µM
8 | AUAAAAGCGCCAGAACUACAGAAAUGUAGUUGACGAGGAGGAGGUUUAUCGAAUCCUCGGCGGAUGCCUCCAAA | 1590 ± 1000 µM
9 | AUAAAAGCGCCAGAACUACAGAAAUGUAGUUGACGAGGAGGAGGUUUAUCGAAUGUUCGGCGGAUGCCUCUAAA | 280 ± 250 µM
10 | AUAAAAGCGCCAGAACUACAGAAAUGUAGUUGACGAGGAGGAGGUUUAUCGAAUUAUAGGCGGAUGCCUCCAAA | 8870 ± 6200 µM
11 | AUAAAAGCGCCAGAACUACAGAAAUGUAGUUGACGAGGAGGAGGUUUAUCGAAUUAUCGGCGGAUGCUUCCAAA | 359 ± 220 µM
12 | AUAAAAGCGCCAGAACUACAGAAAUGUAGUUGACGAGGAGGAGGUUUAUCGAAUUAUCGGCGGAUGCCUGCAAA | 75 ± 43 µM
13 | AUAAAAGCGCCAGAACUACAGAAAUGUAGUUGACGAGGAGGAGGUUUAUCGAAUUAUCGACGGAUGCCUCCAAA | 985 ± 710 µM
14 | AUAAAAGCGCCAGAACUACAGAAAUGUAGUUGACGAGGAGGAGGUUUAUCGAAUUAGCGGCGGAUGCCUCCAAA | 3270 ± 1800 µM
15 | AUAAAAGCGCCAGAACUACAGAAAUGUAGUUGACGAGGAGGAGGUUUAUCGAAUUAUCGGCGGACGCCUCCAAA | 518 ± 520 µM
16 | AUAAAAGCGCCAGAACUACAGAAAUGUAGUUGACGAGGAGGAGGUUUAUCGAAUUCUAGGCGGAUGCCUCCAAA | 6170 ± 3600 µM
17 | AUAAAAGCGCCAGAACUACAGAAAUGUAGUUGACGAGGAGGAGGUUUAUCGAAUUGUCGGCGGCUGCCUCCAAA | 1500 ± 420 µM
18 | AUAAAAGCGCCAGAACUACAGAAAUGUAGUUGACGAGGAGGAGGUUUAUCGAAUUGUCGGCGGUUGCCUCCAAA | 4710 ± 2700 µM
19 | AUAAAAGCGCCAGAACUACAGAAAUGUAGUUGACGAGGAGGAGGUUUAUCGAAUUUAAGGCGGAUGCCUCCAAA | 573 ± 460 µM
20 | AUAAAAGCGCCAGAACUACAGAAAUGUAGUUGACGAGGAGGAGGUUUAUCGAAUUUAGGGCGGAUGCCUCCAAA | 4690 ± 580 µM
21 | AUAAAAGCGCCAGAACUACAGAAAUGUAGUUGACGAGGAGGAGGUUUAUCGAAUUUACGGCGGAUGUCUCCAAA | 3210 ± 1900 µM
22 | AUAAAAGCGCCAGAACUACAGAAAUGUAGUUGACGAGGAGGAGGUUUAUCGAAUUUACGUCGGAUGCCUCCAAA | 13.6 ± 10 µM
23 | AUAAAAGCGCCAGAACUACAGAAAUGUAGUUGACGAGGAGGAGGUUUAUCGAAUUUUAGGCGGAUGGCUCCAAA | 315 ± 310 µM
24 | AUAAAAGCGCCAGAACUACAGAAAUGUAGUUGACGAGGAGGAGGUUUAUCGAAUUUUGGUCGGAUGCCUCCAAA | 3710 ± 2000 µM
25 | AUAAAAGCGCCAGAACUACAGAAAUGUAGUUGACGAGGAGGAGGUUUAUCGAAUUUUCAGCGGAUGCCUUCAAA | 1970 ± 320 µM
26 | AUAAAAGCGCCAGAACUACAGAAAUGUAGUUGACGAGGAGGAGGUUUAUCGAAUUUUCUGCGGAUGCCUCCAAA | 1210 ± 130 µM
27 | AUAAAAGCGCCAGAACUACAGAAAUGUAGUUGACGAGGAGGAGGUUUAUCGAAUUUUCUGCGGAGGCCUCCAAA | 13.8 ± 13 µM
28 | AUAAAAGCGCCAGAACUACAGAAAUGUAGUUGACGAGGAGGAGGUUUAUCGAAUUUUCGGGGGAUGCUUCCAAA | 313 ± 310 µM
29 | AUAAAAGCGCCAGAACUACAGAAAUGUAGUUGACGAGGAGGAGGUUUAUCGAAUUUUCGGUGCAUGCCUCCAAA | 50.7 ± 35 µM
30 | AUAAAAGCGCCAGAACUACAGAAAUGUAGUUGACGAGGAGGAGGUUUAUCGAAUUUUCGGCGGGUGCCUCCAAA | 2080 ± 150 µM

Given as a markdown table: part of the list above.

| Row | Variant | KM |
| --- | --- | --- |
| 7 | AUAAAAGCGCCAGAACUACAGAAAUGUAGUUGACGAGGAGGAGGUUUAUCGAAUCUUGGGCGGAUGCCUCCAAA | 11700 ± 1200 µM |
| 28 | AUAAAAGCGCCAGAACUACAGAAAUGUAGUUGACGAGGAGGAGGUUUAUCGAAUUUUCGGGGGAUGCUUCCAAA | 313 ± 310 µM |

Variants of: B1
Assay: self-cleavage kobs at 640 uM GlcN6P; higher = faster cleavage; RNA array
Details: with glucosamine-6-phosphate
Outline: as §1

Row | Variant | self-cleavage kobs at 640 uM GlcN6P
31 | AUAAAAGCGCCAGAACUACAGAAAUGUAGUUGACGAGGAGGAGGUUUAUCGAAGUUUGGGCGGAUGCCUCCAAA | 2.29e-05 ± 1.4e-05 s⁻¹
32 | AUAAAAGCGCCAGAACUACAGAAAUGUAGUUGACGAGGAGGAGGUUUAUCGAAGUUUCGGCGGAUGCUUACAAA | 2.71e-05 ± 2e-05 s⁻¹
33 | AUAAAAGCGCCAGAACUACAGAAAUGUAGUUGACGAGGAGGAGGUUUAUCGAAUUGUCGGCGGUUGCCUCCAAA | 2.22e-05 ± 2.1e-05 s⁻¹

Variants of: B1
Assay: self-cleavage kobs at 2500 uM GlcN6P; higher = faster cleavage; RNA array
Details: with glucosamine-6-phosphate
Outline: as §1

Row | Variant | self-cleavage kobs at 2500 uM GlcN6P
34 | AUAAAAGCGCCAGAACUACAGAAAUGUAGUUGACGAGGAGGAGGUUUAUCGAAUUAUCGACGGAUGCCUCCAAA | 2.06e-05 ± 1.9e-05 s⁻¹

Variants of: B1
Assay: self-cleavage kobs at 160 uM GlcN6P; higher = faster cleavage; RNA array
Details: with glucosamine-6-phosphate
Outline: as §1

Row | Variant | self-cleavage kobs at 160 uM GlcN6P
35 | AUAAAAGCGCCAGAACUACAGAAAUGUAGUUGACGAGGAGGAGGUUUAUCGAAUUUACGGCGGAUGUCUCCAAA | 1.85e-05 ± 1.6e-05 s⁻¹
36 | AUAAAAGCGCCAGAACUACAGAAAUGUAGUUGACGAGGAGGAGGUUUAUCGAAUUUUCUGCGGAUGCCUCCAAA | < 1e-05 s⁻¹

Variants of: B1
Assay: self-cleavage kobs at 40 uM GlcN6P; higher = faster cleavage; RNA array
Details: with glucosamine-6-phosphate
Outline: as §1

Row | Variant | self-cleavage kobs at 40 uM GlcN6P
37 | AUAAAAGCGCCAGAACUACAGAAAUGUAGUUGACGAGGAGGAGGUUUAUCGAAUUUUAGGCGGAUGGCUCCAAA | 2.07e-05 ± 1.4e-05 s⁻¹
